According to the supplement of paper PMC12889115:
The other results are listed elsewhere or left out. These are raw signals, not scaled to a control.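 First-pass screen: polymyxin B was added at a level that permeabilizes the Salmonella outer membrane while sparing the inner membrane. DMSO wells, with and without polymyxin B, defined maximum growth. Because plates differed from one another, each plate's data were ranked separately and the compounds with the lowest OD600 were carried forward as hits.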

Tested on: Salmonella enterica serovar Typhimurium SL1344
Assay: bacterial growth OD600 after 18 h with compound and polymyxin B; higher = more bacterial growth (less inhibition)
Details: 50 µM, Mueller-Hinton broth

Structure (SMILES): COc1cccc(-c2noc3c2CN(C(=O)CCc2cnn(C)c2)CC3)c1
- bacterial growth OD600 (polymyxin B 1 µg/mL): 0.991

Structure (SMILES): Cc1ccoc1C(=O)N1CCC2(CCCN(Cc3cccnc3)C2=O)C1 (stereo not drawn)
- bacterial growth OD600 (polymyxin B 1 µg/mL): 0.927

Structure (SMILES): COCc1noc(-c2ccc(N3CCCC(CO)C3)nc2)n1 (stereo not drawn)
- bacterial growth OD600 (polymyxin B 1 µg/mL): 1.07

Structure (SMILES): CSCCC(=O)N1CCC2(CCCN(C)C2=O)C1 (stereo not drawn)
- bacterial growth OD600 (polymyxin B 1 µg/mL): 0.942

Structure (SMILES): O=C(CCC1CCCN(C(=O)c2cccs2)C1)N1CCN(Cc2ccccc2)CC1 (stereo not drawn)
- bacterial growth OD600 (polymyxin B 1 µg/mL): 0.965

Structure (SMILES): CN(C(=O)c1cccs1)C(Cc1ccccc1F)C1CCN(Cc2ccc3nsnc3c2)CC1 (stereo not drawn)
- bacterial growth OD600 (polymyxin B 0.75 µg/mL): 0.683

Structure (SMILES): CC(c1nccs1)N(C)C(=O)c1coc(COc2ccccc2F)n1 (stereo not drawn)
- bacterial growth OD600 (polymyxin B 0.75 µg/mL): 0.849

Structure (SMILES): CC(=O)c1ccc(C(=O)N2CCCC(Nc3ccccc3)C2)s1 (stereo not drawn)
- bacterial growth OD600 (polymyxin B 1 µg/mL): 0.825

Structure (SMILES): COCc1ccc(C(=O)N2CCCC(C(=O)c3ccc(C(F)(F)F)cc3)C2)o1 (stereo not drawn)
- bacterial growth OD600 (polymyxin B 1 µg/mL): 0.504

Structure (SMILES): COC(=O)CCNC(=O)c1ccc(OC2CCN(S(C)(=O)=O)CC2)c(Cl)c1
- bacterial growth OD600 (polymyxin B 1 µg/mL): 0.976

Structure (SMILES): C=CCC(=O)N1CCCC(CCc2ccccc2C(F)(F)F)C1 (stereo not drawn)
- bacterial growth OD600 (polymyxin B 0.75 µg/mL): 0.298

Structure (SMILES): CCOC(=O)N1CCC(NC(=O)C2CC23CCN(C(=O)c2ccc(-n4cccn4)cc2)CC3)CC1 (stereo not drawn)
- bacterial growth OD600 (polymyxin B 0.75 µg/mL): 0.828

Structure (SMILES): CN(C)c1ccc(C(=O)N2CCC(CCn3cccn3)CC2)cn1
- bacterial growth OD600 (polymyxin B 1 µg/mL): 0.931

Structure (SMILES): Cc1ccc2c(c1)CN(Cc1cccc(O)c1)CC(C)O2 (stereo not drawn)
- bacterial growth OD600 (polymyxin B 0.75 µg/mL): 0.846

Structure (SMILES): CCN1CCC(C(=O)Nc2cccc(-c3nnc(C)s3)c2)CC1
- bacterial growth OD600 (polymyxin B 1 µg/mL): 1.26

Structure (SMILES): COCCO[C@H]1[C@H](NC(=O)C(C)C)c2ccccc2C12CCN(C(=O)[C@@H](O)c1ccccc1)CC2
- bacterial growth OD600 (polymyxin B 0.75 µg/mL): 0.812

Structure (SMILES): COc1ccc(CC2=NOC(CNC(=O)c3ccc(-n4nc(C)cc4C)cc3)C2)cc1 (stereo not drawn)
- bacterial growth OD600 (polymyxin B 0.75 µg/mL): 0.842

Structure (SMILES): CC(C)=CCN1CCC(C(=O)Nc2cccc(-c3nnc(C)s3)c2)CC1
- bacterial growth OD600 (polymyxin B 1 µg/mL): 1.09

Structure (SMILES): O=C(CC1=CCCCC1)N1CCc2onc(-c3ccccc3F)c2C1
- bacterial growth OD600 (polymyxin B 0.75 µg/mL): 0.407

Structure (SMILES): COc1ccc(-c2n[nH]cc2CN2CCOc3ccc(C(O)Cc4ccccc4)cc3C2)cc1 (stereo not drawn)
- bacterial growth OD600 (polymyxin B 0.75 µg/mL): 0.006

Structure (SMILES): CCOC(=O)C1CCN(C2CCN(c3nc4nonc4nc3N(C)C)CC2)CC1
- bacterial growth OD600 (polymyxin B 0.75 µg/mL): 0.866

Structure (SMILES): C=CCOc1ccccc1CN1CC[C@@H](N2CCN(c3ccccn3)CC2)[C@H](O)C1
- bacterial growth OD600 (polymyxin B 1 µg/mL): 0.973

Structure (SMILES): O=C(Cn1nnnc1CN1CCOCC1)NCCc1ccc(F)cc1
- bacterial growth OD600 (polymyxin B 0.75 µg/mL): 0.869

Structure (SMILES): Cc1nnsc1C(=O)NC(C)c1cnn(-c2cccc3ccccc23)c1C (stereo not drawn)
- bacterial growth OD600 (polymyxin B 1 µg/mL): 0.905

Structure (SMILES): CCOC(=O)C1(CCOc2ccccc2)CCCN(Cc2cnc(N(C)C)s2)C1 (stereo not drawn)
- bacterial growth OD600 (polymyxin B 1 µg/mL): 0.447

Structure (SMILES): COc1ccccc1NC(=O)Nc1ccnn1C1CCN(Cc2cccc(C)n2)CC1
- bacterial growth OD600 (polymyxin B 0.75 µg/mL): 0.828

Structure (SMILES): CCn1nc(C)c(CNC2CCN(c3ccc(C(=O)N4CCCC(CO)C4)cc3)CC2)c1C (stereo not drawn)
- bacterial growth OD600 (polymyxin B 0.75 µg/mL): 0.844

Structure (SMILES): Cc1ccc(C(=O)N2CCc3onc(-c4cccc(F)c4)c3C2)s1
- bacterial growth OD600 (polymyxin B 0.75 µg/mL): 0.006

Structure (SMILES): Cc1ccc(C(=O)Nc2ccc(N3CCC(NCc4ccc(C)o4)CC3)cc2)c(C)c1
- bacterial growth OD600 (polymyxin B 0.75 µg/mL): 0.904

Structure (SMILES): O=C1N(CC2CCC2)CCCC12CCN(C1Cc3ccccc3C1)C2 (stereo not drawn)
- bacterial growth OD600 (polymyxin B 1 µg/mL): 0.053

Structure (SMILES): COc1ccc2c(c1)CC(C(=O)N1CCC(CCC(=O)Nc3ccccc3)CC1)CO2 (stereo not drawn)
- bacterial growth OD600 (polymyxin B 1 µg/mL): 1.1

Structure (SMILES): O=C(NCC1CC(Cc2ccc(F)cc2)=NO1)c1csc(-c2cccs2)n1 (stereo not drawn)
- bacterial growth OD600 (polymyxin B 0.75 µg/mL): 0.066

Structure (SMILES): COC(=O)CCCC(=O)N1CCCC(N2CCN(c3cccc(Cl)c3)CC2)C1 (stereo not drawn)
- bacterial growth OD600 (polymyxin B 1 µg/mL): 0.744
